From publication PMC5200908
These are yes or no findings as the source states them, for the method shown. Binding seen in cells or lysates may run through a third protein. Binding can be weak; no strength is given. Sequences can lack the tags named with a protein.

Target: HA-Reck
Test: proximity ligation; HEK293T cells 48 h after transfection with FLAG-adgra2 or FLAG-adgra2^ouchless and HA-reck, plus a Wnt7a (mouse gene) expression construct; fixed 15 min in 4% paraformaldehyde; mouse anti-FLAG M2 1:10,000 and rabbit anti-HA 1:400

binding: binds
B1: FLAG-Adgra2 (receptor, UniProt E7FBY6 27-1367)
chain: CPELFSSGCSCTEDRSKAHPTPGTRRKVSCGGKELTETPEVSLLPNRTVSLNLSNNRIRMLKNGSFAGLSSLEKLDLRNNLISTIMPGAFLGLTALRKLDLSSNRIGCLTPEMFQGLTNLTKLNISGNIFSSLDPNVFMELHSLKLVNFHSEFLSCDCGLRWVPSFFRSGSARLGDETLCAYPRRLQNKPLRLLRESDLSCEGPLELHTLSLLPSQRQVVFKGDRLPFHCTASLVDKITALHWRQNGQPVTSDPTKGIHLEESVQHDCTFITSELILSNVHVEASGEWECVVSTGRGNTSCSVEIVVLENSASFCPEQKVNNNRGEFRWPRTLAGITSYQHCLQLRYPSLTLGGGVEQKKASRNCDRSGRWEEADYSQCLYTNDITRILHTFILMPVNASNAVTLAHQVRSYTLEAAGFTDTVDVLYVAQMMHKFMDYVTELRELSEVLVEMGSNLMQVDDQILARAQREERACSSIVYTLETLAWPQLHSHAQDLSRYSRNIVMEAHLIRPAHFTGISCTVYQRREGAAGSQVHDGADLSLEQQLRFRCTTGTHNTSLNAFHLKNAVALATVSLPATLFPPNAPPDCKLQFVAFRNGRFFPFTSNFTGHSDLARRRGISTPVIYAGLDGCSMWNQSDPIIVSLRHTSPGHDPVAAHWNSQALGHHGSWSLDGCQLIHSDVSISTLRCSVLSNYAVLQEIPDFPGSPSIPVEVLHPVIYTCTAVLLLCLFTIIITYILHHSSIRITRKSWHTLLNTSFHVAMTSAVFAGGITLTGYPIVCQAVGIVLHYSSLSTLLWIGVSARVIYKEALLRTPQQLEGESAVQPTQRPMLRFYLIAGGVPLIICGITAAVNINNYGDNIPYCWLVWQPSFGAFYIPAGLIILVTWIYFLCTVFCLRQRNFQESKDLQCSASDPSNLPESQPALSGSTSLLSTDSGVSPVHAGTTVEDQYSLKVQCLALMATQFVFVGLWCCGAMAVWHVDRERKLFSCLYGGTATGLGIFLVLHHCFKRLDVQAAWLGCCPGYHRSQPMPAYSHPCTVTVGVQSASERGSQLFVACHPPTDPNHYSSSARSSSTQSGTASITVVPSKLTNLLQVSQDNANNASRAPAGTNTNTSTSTENNKPTNNLLPSLLPVQQPQRRKACSRTKGGNTQYHHRGDARSHYRLKALRAGGGGSMGALGPSGTEHSNIYHVHKHASSENGSLRNSHSEGQNGLLTNGRHRGEGLATSPSEGSDGGSSGSRKPFPLLPSVARRAAMQQNAQCRSASKDNLKLAAAAERESKRSSFPLNMSSNVTATASLSTVSAPNGTLKGSVVELDTSGTDQSQGSVGMKSRVWKSETTV
